Some of the results follow.
target: OsWRKY34 (Oryza sativa, UniProt Q0JBA9 1-250); assay: protein-binding microarray (RPBM); PBS, 2% BSA, 51.3 ng/ul salmon testes DNA, 50 uM zinc acetate, 200 nM TF, 25 C, 1 h; high values mean tight binding; settings: protein: recombinant; tags: N-terminal polyhistidine and DsRed monomer fusion (pET32a); label: CyDye5-dUTP incorporated in the synthesized complementary strand; 3' TTTTT single-stranded linker to array surface; dsDNA, one strand shown
Outline: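 For the binding signal, per-feature fluorescence intensity was read in arbitrary units on an Axon 4000B scanner. Before scanning, a 2% BSA-blocked custom Agilent array made double-stranded with Cy5-dUTP was washed after 1 h at 25 °C with 200 nM protein and 50 µM zinc acetate. The proteins were Ni–NTA-purified transcription factors with N-terminal polyhistidine and DsRed fusions, expressed in E. coli BL21-CodonPlus.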

Protein sequences, listed by entry. Tags and fused reporters are not part of them.
UniProt Q0JBA9, entry or part of it: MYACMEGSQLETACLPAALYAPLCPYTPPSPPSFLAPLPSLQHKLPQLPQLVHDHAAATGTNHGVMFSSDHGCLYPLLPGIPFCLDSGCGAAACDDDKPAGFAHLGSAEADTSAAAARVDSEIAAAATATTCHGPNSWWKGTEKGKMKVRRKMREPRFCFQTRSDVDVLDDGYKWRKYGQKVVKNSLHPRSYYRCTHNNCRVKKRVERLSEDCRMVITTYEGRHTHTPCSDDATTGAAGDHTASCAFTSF

| Sequence | binding signal |
| --- | --- |
| TTCCCAATCCCAATTCCATTCATTCTCCCTCATCCATTTACGGAGTCACCTAGTGCAG | 10100 fluorescence intensity (a.u.) |
| TCGTAACCCCTCTTTCTCGTTTTCCGCGCGCACTCTTTTCCGGAGTCACCTAGTGCAG | 11200 fluorescence intensity (a.u.) |
| GTGCTCTACTTCTACTCGTCTCACGGCTAATCACCTGGTACGGAGTCACCTAGTGCAG | 8920 fluorescence intensity (a.u.) |
| ATTCCACAAAGCTAGCGCCGCGGCCTCATCATTCCAGGCGCGGAGTCACCTAGTGCAG | 8070 fluorescence intensity (a.u.) |
| ATATCACTTATTTAAGTTTTAAAAAGTTCCATATTTTTCTCGGAGTCACCTAGTGCAG | 8820 fluorescence intensity (a.u.) |
| GGCTCGTGTAGGGTGGTGCGCCCCGGTGTTTCGGGAGGTTCGGAGTCACCTAGTGCAG | 8800 fluorescence intensity (a.u.) |
| TCGACGTCGTGTTTCATGATCTCAAGGTTAGCTGCACATCCGGAGTCACCTAGTGCAG | 8360 fluorescence intensity (a.u.) |
| AGAAAAAGGTGAGTTGGTGGTGTCATATATAGTGTGTGGTCGGAGTCACCTAGTGCAG | 8470 fluorescence intensity (a.u.) |
| GTGTTCAGTTATTTCAGTTCAGTGATCTAGTTTCATCTCACGGAGTCACCTAGTGCAG | 8070 fluorescence intensity (a.u.) |
| TGTTGCTTGCTAGCTTTAATCTATCGCAATGGATTAGGTTCGGAGTCACCTAGTGCAG | 13000 fluorescence intensity (a.u.) |
| CAGGACTGCGTGCTCCTTCTCGTTGTTCCTTACTCACCTTCGGAGTCACCTAGTGCAG | 9560 fluorescence intensity (a.u.) |
| CATATTATAAGTCGTTTTGACTTTTTTTTCTTAGTCAATCCGGAGTCACCTAGTGCAG | 12100 fluorescence intensity (a.u.) |
| TTGGTGCCTGCTGTGTTCATATTTTTCTACCCCTTTCTCCCGGAGTCACCTAGTGCAG | 8610 fluorescence intensity (a.u.) |
| GGTTTGACCGGCGGGAGGACGCTTTGACCGAGGTGGGAGGCGGAGTCACCTAGTGCAG | 8840 fluorescence intensity (a.u.) |
| ATTGTAATGTCACCTTTGCAAATCCTTAACTGCTCGGATACGGAGTCACCTAGTGCAG | 9580 fluorescence intensity (a.u.) |
| ATACTTTACTCGTGACTTATATTTTTAATTTTTTTATTTTCGGAGTCACCTAGTGCAG | 9400 fluorescence intensity (a.u.) |
| TTATGCCTTATTATATGTTTATCCTTCTTAGACTAATGTTCGGAGTCACCTAGTGCAG | 9200 fluorescence intensity (a.u.) |
| GTACTACATGCCATTGCCATCTCAACTACGTATTAGTTAGCGGAGTCACCTAGTGCAG | 11500 fluorescence intensity (a.u.) |
| TCCATTATACTTCGAATCTTCAAGACTTGTACTTATACCTCGGAGTCACCTAGTGCAG | 8860 fluorescence intensity (a.u.) |
| GCCTTCTTTACGTGTATTTTTATTGGGAATAAGTTCACTTCGGAGTCACCTAGTGCAG | 8080 fluorescence intensity (a.u.) |
| GGCCACCGCGCGCCTCTCCCCATCGTCCGCCGTGACACGCCGGAGTCACCTAGTGCAG | 11300 fluorescence intensity (a.u.) |
| TCCTTTTTTCAGAACCGAACAATCCATTTTGTTCTGCAACCGGAGTCACCTAGTGCAG | 8460 fluorescence intensity (a.u.) |
| GAGAGGGAGAGAGAGAGAGGTGGGGTTTTGATGGAAGTACCGGAGTCACCTAGTGCAG | 8540 fluorescence intensity (a.u.) |
| AATTCCCGTAATACTTTAATTATCCCATGTTTATCGGATCCGGAGTCACCTAGTGCAG | 9070 fluorescence intensity (a.u.) |
| CCGTGTTATCTACTTCCTTCGTTCTATAATATAAGAGATTCGGAGTCACCTAGTGCAG | 10100 fluorescence intensity (a.u.) |
| TACCATATACAAGTGCATAGTCTGATCCATATATTTATGACGGAGTCACCTAGTGCAG | 9170 fluorescence intensity (a.u.) |
| TTAATAACTTTGGCCTCCTTTTTTTTTTTTTTTCATTCCTCGGAGTCACCTAGTGCAG | 10300 fluorescence intensity (a.u.) |

| Sequence | binding signal |
| --- | --- |
| AAGACGGCTAAACGCAACCACGAATTCAGGGGAGGGGAATCGGAGTCACCTAGTGCAG | 9490 fluorescence intensity (a.u.) |
| AGGCCACAAAAAGACTCTCTCCTGTACGACTATGCATTTCCGGAGTCACCTAGTGCAG | 9240 fluorescence intensity (a.u.) |
| GCATCCACGTGCACAGGGTATCATGTTTAATTCGTGACTTCGGAGTCACCTAGTGCAG | 8520 fluorescence intensity (a.u.) |
| CTGACAAGCGCCCATCTTCCTTGTCTCCGCTTCGTCTTCGCGGAGTCACCTAGTGCAG | 11000 fluorescence intensity (a.u.) |
| TCTAACGTAAGGTTTGTGCAAATTCCACCATCTATACGCCCGGAGTCACCTAGTGCAG | 8160 fluorescence intensity (a.u.) |
| ACCTCAGTCACCTCACGGCTTTCCTCTGACAGATGCCGTCCGGAGTCACCTAGTGCAG | 10800 fluorescence intensity (a.u.) |
| AGATATCCAATCAAGGCTTTCATCGCTAGTCATCTATATCCGGAGTCACCTAGTGCAG | 8880 fluorescence intensity (a.u.) |
| ACGCTCTCAACTATTTTATCCATACGCACTAGTTATCGATCGGAGTCACCTAGTGCAG | 9440 fluorescence intensity (a.u.) |
| ATCTGGGGCGGGGATGCGAATGAGGGGTCCTCGCCCGCGACGGAGTCACCTAGTGCAG | 10600 fluorescence intensity (a.u.) |
| CACACTTTCCTTCAGCTAGTTTATAAATATGCTCGAGGACCGGAGTCACCTAGTGCAG | 8130 fluorescence intensity (a.u.) |
| TCAATCTCGAAAAATTTTCATTGAGCGTCAATCTTTTCATCGGAGTCACCTAGTGCAG | 8350 fluorescence intensity (a.u.) |
| CCCTATCGAACGACCACCGAAACCATCATCATTCATCACCCGGAGTCACCTAGTGCAG | 9470 fluorescence intensity (a.u.) |
| CACTCTCATATTGTCCCACATGTTAGTATTTATAATGGTACGGAGTCACCTAGTGCAG | 9340 fluorescence intensity (a.u.) |
| ACCCACAAACGATCCATCCATCACTCGATCGTAACAACTTCGGAGTCACCTAGTGCAG | 10200 fluorescence intensity (a.u.) |
| CGCCCTCGCTTCGCTTCCACTCCACCTCTCTCTCGATTCACGGAGTCACCTAGTGCAG | 10800 fluorescence intensity (a.u.) |
| CCCCACGAAACCAGTCCACCACCATCTCTAGAACTTTCCACGGAGTCACCTAGTGCAG | 10000 fluorescence intensity (a.u.) |
| ACAGGAGCACCATCAACAGCTGACAACTTGGCATTGGTATCGGAGTCACCTAGTGCAG | 8900 fluorescence intensity (a.u.) |
| ATAAAAAGTCAACGGCGTCATATATTAAAATATGAAGGTACGGAGTCACCTAGTGCAG | 8990 fluorescence intensity (a.u.) |
| CATATACTCTATCCGTTTCTAAATATTTGACGCCGTTGACCGGAGTCACCTAGTGCAG | 16200 fluorescence intensity (a.u.) |
| CTGCTCTAGATTTTGTATCGTATCCTCGCGTTGCATTACGCGGAGTCACCTAGTGCAG | 12200 fluorescence intensity (a.u.) |
| ACCTCGCCACCGTCGCAACAACCGTGCCGCCCTCCACCAACGGAGTCACCTAGTGCAG | 9210 fluorescence intensity (a.u.) |
| AACACAAGGGCACTCTAGGATGGCTCACGTTGATCGTGCCCGGAGTCACCTAGTGCAG | 8080 fluorescence intensity (a.u.) |
| ATGATGGATAAGTGGGTGGGCCAAACAGGTGCTCACGTGGCGGAGTCACCTAGTGCAG | 9050 fluorescence intensity (a.u.) |
| GGGCATTTTAGTCTTTATGTTTATTTCGGTGGAAGGATATCGGAGTCACCTAGTGCAG | 12300 fluorescence intensity (a.u.) |
| TATTGACTTTGGTCAAAGTCAAACTGTTTTAAATTTCACTCGGAGTCACCTAGTGCAG | 10500 fluorescence intensity (a.u.) |
| ACTTGGTTCTTGCTCATCATCTTTCGCTTGCTCGTCAGCTCGGAGTCACCTAGTGCAG | 8360 fluorescence intensity (a.u.) |
| TGCACGTTCCATCCATCGATCACTTGCTGCGATCCGCGGCCGGAGTCACCTAGTGCAG | 9240 fluorescence intensity (a.u.) |

15 entries from above, with bars between the fields.
Sequence | binding signal
AAGACGGCTAAACGCAACCACGAATTCAGGGGAGGGGAATCGGAGTCACCTAGTGCAG | 9490 fluorescence intensity (a.u.)
AGGCCACAAAAAGACTCTCTCCTGTACGACTATGCATTTCCGGAGTCACCTAGTGCAG | 9240 fluorescence intensity (a.u.)
GCATCCACGTGCACAGGGTATCATGTTTAATTCGTGACTTCGGAGTCACCTAGTGCAG | 8520 fluorescence intensity (a.u.)
CTGACAAGCGCCCATCTTCCTTGTCTCCGCTTCGTCTTCGCGGAGTCACCTAGTGCAG | 11000 fluorescence intensity (a.u.)
TCTAACGTAAGGTTTGTGCAAATTCCACCATCTATACGCCCGGAGTCACCTAGTGCAG | 8160 fluorescence intensity (a.u.)
ACCTCAGTCACCTCACGGCTTTCCTCTGACAGATGCCGTCCGGAGTCACCTAGTGCAG | 10800 fluorescence intensity (a.u.)
AGATATCCAATCAAGGCTTTCATCGCTAGTCATCTATATCCGGAGTCACCTAGTGCAG | 8880 fluorescence intensity (a.u.)
ACGCTCTCAACTATTTTATCCATACGCACTAGTTATCGATCGGAGTCACCTAGTGCAG | 9440 fluorescence intensity (a.u.)
ATCTGGGGCGGGGATGCGAATGAGGGGTCCTCGCCCGCGACGGAGTCACCTAGTGCAG | 10600 fluorescence intensity (a.u.)
CACACTTTCCTTCAGCTAGTTTATAAATATGCTCGAGGACCGGAGTCACCTAGTGCAG | 8130 fluorescence intensity (a.u.)
TCAATCTCGAAAAATTTTCATTGAGCGTCAATCTTTTCATCGGAGTCACCTAGTGCAG | 8350 fluorescence intensity (a.u.)
CCCTATCGAACGACCACCGAAACCATCATCATTCATCACCCGGAGTCACCTAGTGCAG | 9470 fluorescence intensity (a.u.)
CACTCTCATATTGTCCCACATGTTAGTATTTATAATGGTACGGAGTCACCTAGTGCAG | 9340 fluorescence intensity (a.u.)
ACCCACAAACGATCCATCCATCACTCGATCGTAACAACTTCGGAGTCACCTAGTGCAG | 10200 fluorescence intensity (a.u.)
CGCCCTCGCTTCGCTTCCACTCCACCTCTCTCTCGATTCACGGAGTCACCTAGTGCAG | 10800 fluorescence intensity (a.u.)

From PMC7819943, “Rice protein-binding microarrays: a tool to detect cis-acting elements near promoter regions in rice”
